The results in this text go back to patent US9193744B2, “Heterocyclic nuclear hormone receptor modulators” (AbbVie Inc., priority 2012, dated 2015).

The chains behind the UniProt entries cited, without tags or fusion partners.
UniProt P04150, whole entry: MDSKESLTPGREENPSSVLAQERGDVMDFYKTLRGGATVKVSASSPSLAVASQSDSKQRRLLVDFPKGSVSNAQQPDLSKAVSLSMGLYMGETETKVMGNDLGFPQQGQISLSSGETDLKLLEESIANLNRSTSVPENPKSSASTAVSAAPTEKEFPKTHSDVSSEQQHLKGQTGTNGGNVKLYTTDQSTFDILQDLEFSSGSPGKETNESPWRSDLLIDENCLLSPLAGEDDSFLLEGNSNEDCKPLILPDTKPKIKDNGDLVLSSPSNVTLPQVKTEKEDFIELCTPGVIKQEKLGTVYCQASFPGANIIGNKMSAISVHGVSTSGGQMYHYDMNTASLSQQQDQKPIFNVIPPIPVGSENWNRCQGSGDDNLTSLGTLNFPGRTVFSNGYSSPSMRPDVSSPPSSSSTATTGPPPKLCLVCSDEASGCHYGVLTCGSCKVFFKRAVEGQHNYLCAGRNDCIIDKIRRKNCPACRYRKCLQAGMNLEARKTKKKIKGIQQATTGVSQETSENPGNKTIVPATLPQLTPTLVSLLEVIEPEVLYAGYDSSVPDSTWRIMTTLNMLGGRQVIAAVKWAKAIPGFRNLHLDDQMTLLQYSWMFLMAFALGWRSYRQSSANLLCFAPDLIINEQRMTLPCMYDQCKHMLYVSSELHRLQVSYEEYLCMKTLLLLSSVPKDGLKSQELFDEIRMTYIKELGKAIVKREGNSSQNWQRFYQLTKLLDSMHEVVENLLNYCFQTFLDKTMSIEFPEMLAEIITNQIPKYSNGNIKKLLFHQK

The match of structure and compound is tentative.

Assay [1] has as its target Glucocorticoid Receptor (GR) (Homo sapiens, UniProt P04150). The assay can be described thus: GR Fluorescence Polarization Assay (PolarScreen Glucocorticoid Receptor Competitor Assay, Red). The conditions noted are these: read-out: GR binding; fluorescence polarization binding ranges. As for the experimental part:
Fluorescence polarization assays were carried out using the PolarScreen™ Glucocorticoid Receptor Competitor Assay, Red from Invitrogen (P2893). The assay buffer was prepared according to the manufacturer's protocol and used to dilute the fluorescent glucocorticoid and GR. Compounds were prepared and serial diluted 1:4 in DMSO. Compound, fluorescent glucocorticoid and GR were added in a final volume of 20 μL and incubated overnight at 4° C. Fluorescent polarization was measured on the PerkinElmer Envision®. Fluorescence polarization binding ranges measured using GR Fluorescence Polarization Assay: […]
On the technique in general: In fluorescence polarisation assays a small probe gives low polarisation when free and higher when bound to something large.

For the next assay, the system named is IL-6. As to the kind of experiment: A549 Cell Assay to Measure Inflammation Markers (inhibition of IL-1β-induced IL-6). The conditions noted are these: read-out: A549 cell assay; A549 cells. As for the experimental part: A549 Cell Assay to Measure Inflammation Markers
A549 cells were seeded (3E4 cells/well) in 96-well assay plates in culture medium (100 μL/well., F-12 K base media, supplemented with 10% FBS and 100 μ/mL-100 μg/mL Pen-Strep.) After overnight culture in an incubator set to 37° C., 4.9% CO2, and 90% humidity, media was removed from adherent cells by aspiration and replaced with 100 μL/well Assay Medium (F-12 K base media supplemented with 5% charcoal stripped calf sera and 100 U/mL-100 μg/mL Pen-Strep.) Compounds were prepared in DMSO and serial diluted (1:3, 1:4, or 1:5) with DMSO in Dilution Plate(s) to give 10 dilution points for each compound tested. Further dilution (1:250) of compound was made into assay medium and 50 μL/well diluted drug or DMSO/media control was applied to cells. After a 1 h pre-incubation in a temperature, CO2, and humidity controlled incubator, set to 37° C., 50 μL/well of 4 ng/mL IL-1β diluted in assay media, was applied to cultures. Assay plates, with a final volume of 200 μL/well and final concentrations of 0.1% DMSO and 1 ng/mL IL-1β were returned to incubator for a four h incubation period. Next, plates were spun at 183 g (1000 rpm in Beckman/Coulter Allegra 6KR centrifuge) for 10 min. Cell-free supernatant (150 μL/well) was collected and IL-6 was measured by MSD kit, following protocol of manufacturer, and using MSD SECTOR Imager 6000 instrument. […]

On to `CCS(=O)(=O)NC[C@@]12CC[C@](O)(C(F)(F)F)C[C@H]1CCCc1cc3c(cnn3-c3ccc(F)cc3)cc12`, for which the IC50 in assay [1] is 0.1 to 1 µM.

Consider `CS(=O)(=O)NC[C@@]12CC[C@](O)(C(F)(F)F)C[C@H]1CCCc1cc3c(cnn3-c3ccc(F)cc3)cc12`, for which the IC50 (in assay [1]; in the assay with IL-6) was less than 0.1 µM in each case.
